The nature of the test: IkB Signaling. Conditions: ABC-DLBCL IkBa-CBG/CBR dual luciferase ratio (green luciferase fused to IkBa over red control in OCI-Ly3 lymphoma cells), 4 h. The method, boiled down: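 In this assay, an IκBα–CBG68 fusion accumulates when IKK-driven degradation is blocked; native CBR normalizes for cell number. OCI-Ly3 cells were treated 4 h with compound and doxycycline, then green and red light read after Chroma-Glo addition.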
[1] abbreviates: measured here: control luc red channel unless noted.

Some of the results follow. Further columns of the screen follow, without active or inactive calls. Most of these compounds were active or inconclusive in the main read-out, so they are no random draw. The note in brackets gives the kind of curve behind each potency; many fits are weak.

As a reminder, the AC50 is the concentration giving half of the maximal activity seen. As to `CCc1ccc2[nH]c(=O)c(C(c3nnnn3CCOC)N3CCN(c4ccc(F)cc4)CC3)cc2c1` (stereo not drawn), the half-maximal activity concentration (AC50) under setting [1] is 25.1 µM [falling, single point].
With `Fc1ccc(C(c2ccc(F)cc2)N2CCN(C/C=C\c3ccccc3)CC2)cc1`, the half-maximal activity concentration (AC50) under setting [1] was 31.6 µM [falling, partial curve].
For the compound `O=C(Nc1ccccc1Cl)c1sc2cccc(Cl)c2c1Cl`, the half-maximal activity concentration (AC50) under setting [1] was 0.0794 µM [rising, full curve, poor fit].
For `Cc1ccc(N(CC(=O)Nc2ccc(Cl)cc2)S(=O)(=O)c2cccc3nonc23)cc1`, the half-maximal activity concentration (AC50) under setting [1] is 15.8 µM [falling, partial curve].
`CN(C)c1ccc(CNC(=O)Cn2c(=O)oc3cc(S(=O)(=O)N4CCCCCC4)ccc32)cc1`: the AC50 under setting [1] is 25.1 µM [rising, partial curve].
Turning to `COc1cc(C(=O)NCc2nnc(SCC(=O)Nc3cc(C)cc(C)c3)o2)cc(OC)c1OC`, under setting [1], the AC50 is 20 µM [falling, partial curve].
For the compound `COc1ccc(-n2c(=O)[nH]c3cc(C(=O)NCCc4ccccc4)ccc3c2=O)cc1OC`, the concentration at half-maximal activity (AC50) under setting [1] is 31.6 µM [falling, partial curve].
As for `O=C(COc1ccccc1)Nc1ccc2nc(SCC(=O)N3CCOCC3)sc2c1`, the half-maximal activity concentration (AC50) under setting [1] is 25.1 µM [falling, single point].
`CCCn1c2ccccc2c2nnc(SCC(=O)Nc3cccc(C(C)=O)c3)nc21`: under setting [1], the AC50 was 3.16 µM [falling, single point].
As to `Cc1ccc(NC(=O)c2cnn3c2NC(c2ccccc2)=CC3c2ccccc2)cc1` (stereo not drawn), under setting [1], the half-maximal activity concentration (AC50) was 31.6 µM [falling, partial curve].
Still for that read-out and setting: in the case of `CCC(Sc1nnc(C)n2c1cc1occc12)C(=O)Nc1ccccc1OC` (stereo not drawn) it was 20 µM [falling, single point].
With `CCN(Cc1ccccc1)C(=O)c1cnn(-c2ccc(F)cc2)c1-n1cccc1`, the AC50 under setting [1] was 25.1 µM [falling, partial curve].
With `Nc1nc(CN2CCN(c3ccccn3)CC2)nc(Nc2ccc(Cl)cc2)n1`, the concentration at half-maximal activity (AC50) under setting [1] was 12.6 µM [falling, partial curve].
Take `CCCSc1nc2c([nH]c3ccccc32)c(=O)n1C`: the concentration at half-maximal activity (AC50) under setting [1] is 1.26 µM [rising, full curve].
Consider `COc1ccccc1CNC(=O)CSC1=Nc2ccccc2N=C(c2ccc(F)cc2)C1`, for which the AC50 under setting [1] is 7.94 µM [falling, partial curve].
On to `CC(C)c1nc2ccc(C(=O)Nc3ccccc3F)cc2o1`, for which the AC50 under setting [1] is 10 µM [falling, partial curve].
As for `COc1ccc(NC(=O)CCCn2nc(C)c3sc4ccccc4c3c2=O)cc1`, the half-maximal activity concentration (AC50) under setting [1] is 25.1 µM [falling, single point].
With `COc1ccc(-c2nc(CSCC(=O)N3CCN(c4ccc(F)cc4)CC3)c(C)o2)cc1`, the AC50 under setting [1] was 25.1 µM [falling, single point].
For `Fc1ccc(C2=CC(c3ccc(F)cc3)n3c(nc4ccccc43)N2)cc1` (stereo not drawn), the concentration at half-maximal activity (AC50) under setting [1] was 15.8 µM [falling, partial curve].
Same read-out and setting: in the case of `CCC(C)Nc1ncnc2c1cnn2-c1ccc(F)cc1` (stereo not drawn) it was 10 µM [falling, partial curve]; in that of `Cc1cc(C(=O)Nc2ccc(-n3c(C)nc4ccccc4c3=O)cc2)ccc1[N+](=O)[O-]`, 0.0251 µM [rising, full curve, poor fit]; in that of `Cc1nn(C)cc1CNC(=O)c1cnn2c1NC(c1ccc(Br)cc1)CC2C(F)(F)F` (stereo not drawn), 25.1 µM [falling, partial curve].
For `O=C(CSc1nnc(-c2ccc(F)cc2)o1)N1CCCc2ccccc21`, the half-maximal activity concentration (AC50) under setting [1] was 39.8 µM [falling, single point].
With `O=C(CCC1N=C2c3ccccc3N=C(SCc3ccc(Cl)cc3)N2C1=O)N1CCN(c2ccccc2)CC1` (stereo not drawn), under setting [1], the AC50 was 39.8 µM [falling, single point].
Regarding `COc1ccc(C2C=C(c3ccc(Cl)c(Cl)c3)Nc3ncnn32)cc1` (stereo not drawn), under setting [1], the concentration at half-maximal activity (AC50) was 20 µM [falling, single point].
For the compound `COC(=O)c1sccc1S(=O)(=O)N(CC(=O)NCc1ccc(C)cc1)c1ccc(C)cc1`, the concentration at half-maximal activity (AC50) under setting [1] was 25.1 µM [falling, partial curve].
Still for that read-out and setting: to `Cc1cc2occ(CC(=O)NC3=NCCS3)c2cc1C(C)C` belongs 25.1 µM [falling, partial curve]; to `Cc1csc(NC(=O)c2sc3nc(-c4cccs4)ccc3c2N)n1`, 3.98 µM [falling, full curve]; to `Cc1ccccc1OCCCN1C(=O)C(=O)c2cccc(C)c21`, 39.8 µM [rising, partial curve] [measured here: IkB-luc green channel].
`Cn1nnnc1SCC(=O)Nc1ccc(Oc2ccccc2)cc1`: the concentration at half-maximal activity (AC50) under setting [1] is 3.98 µM [falling, partial curve].
Regarding `Cc1ccccc1-c1nnn(CC(=O)Nc2sc3c(c2C#N)CCC(C(C)(C)C)C3)n1` (stereo not drawn), the concentration at half-maximal activity (AC50) under setting [1] was 10 µM [falling, partial curve].
Take `Cc1ccc(C)c(SCC(=O)Nc2nnc(-c3ccccc3)o2)c1`: the concentration at half-maximal activity (AC50) under setting [1] is 6.31 µM [rising, single point] [measured here: IkB-luc green channel].
Still for that read-out and setting: in the case of `Cc1ccc2ncc(C(=O)Nc3ccc(OC(F)(F)F)cc3)c(=O)n2c1` it was 3.16 µM [rising, partial curve, poor fit].
As for `CCOC(=O)c1c(NC(=O)c2nc(S(C)(=O)=O)ncc2Cl)sc(C(C)=O)c1C`, under setting [1], the half-maximal activity concentration (AC50) was 3.16 µM [falling, full curve].
Turning to `O=C1CCCc2cc(S(=O)(=O)N3CCCC(C(=O)NCc4ccc(Cl)cc4)C3)ccc2N1` (stereo not drawn), the half-maximal activity concentration (AC50) under setting [1] is 25.1 µM [falling, single point].
For the compound `O=C(NCC(c1ccc(Cl)cc1)N1CCOCC1)c1ccccc1F` (stereo not drawn), the AC50 under setting [1] is 15.8 µM [falling, single point].
Consider `Cc1ccc(C)c2[nH]c(=O)c(C(c3nnnn3Cc3ccco3)N3CCc4ccccc4C3)cc12` (stereo not drawn), for which, under setting [1], the concentration at half-maximal activity (AC50) is 39.8 µM [rising, single point] [measured here: IkB-luc green channel].
The same measure, in the same setting: in the case of `CCOc1cc(C2c3c(n[nH]c3C)C(=O)N2c2ccc(Br)cc2)ccc1O` (stereo not drawn) it was 12.6 µM [falling, partial curve]; in that of `CCOC(=O)C1CCCN(C(=O)c2cc(Nc3ccc(OC)c(OC)c3)nc3ccccc23)C1` (stereo not drawn), 20 µM [falling, partial curve]; in that of `CCCn1c2ccccc2c2cnn(CC(=O)N3CCN(c4ccccc4)CC3)c(=O)c21`, 39.8 µM [falling, single point].
Take `CCOc1ccc(NC(=O)c2ncoc2-c2ccco2)cc1`: the half-maximal activity concentration (AC50) under setting [1] is 10 µM [falling, partial curve].
For `O=C(Cn1c(=O)nc(-c2ccccc2)c2cc(Cl)ccc21)Nc1ccc(F)c(Cl)c1`, the AC50 under setting [1] is 12.6 µM [falling, partial curve].
Turning to `COC(=O)c1sc(NC(=O)COc2ccccc2OC)nc1C`, under setting [1], the AC50 is 12.6 µM [falling, partial curve].
Consider `CCOC(=O)c1[nH]c2ccccc2c1NC(=O)c1ccc(Br)cc1`, for which, under setting [1], the AC50 was 0.398 µM [rising, full curve, poor fit].
In the case of `COc1cccc(-c2nn(C)c3sc(C(=O)N4CCN(c5ccccn5)CC4)cc23)c1`, under setting [1], the concentration at half-maximal activity (AC50) was 6.31 µM [falling, full curve].
For `COc1cccc(CNC(=O)C2CCN(S(=O)(=O)c3ccc4c(c3)CCCN4C(C)=O)CC2)c1`, the AC50 under setting [1] is 0.0251 µM [rising, full curve, poor fit].
With `CCn1c(=O)c(C(=O)NCc2ccc(OC)c(OC)c2)c(O)c2ccccc21`, the AC50 under setting [1] is 31.6 µM [falling, single point].
Consider `CSCCOC(=O)c1[nH]c2c(c1C)C(=O)CC(c1ccco1)C2` (stereo not drawn), for which the AC50 reads like this: (measured here: IkB-luc green channel) 2 µM [rising, full curve]; (measured here: control luc red channel) 0.631 µM [rising, full curve].
As to `CCOc1ccc(-c2nc3c(c(SCC(=O)N4CCCCC4)n2)Cc2cccc(OC)c2O3)cc1`, the concentration at half-maximal activity (AC50) under setting [1] is 25.1 µM [falling, partial curve].
Regarding `CCCCN1C(=O)C(O)(CC(=O)c2ccc(C(C)(C)C)cc2)c2ccccc21` (stereo not drawn), the half-maximal activity concentration (AC50) under setting [1] was 25.1 µM [falling, partial curve].
On to `Cc1ccc(OCC(=O)Nc2ccc3nc(SCC(=O)N4CCOCC4)sc3c2)cc1`, for which the concentration at half-maximal activity (AC50) under setting [1] is 12.6 µM [falling, partial curve].
On to `CCCCNC(=O)CCCn1c(=O)c2ccccc2n(Cc2cccc(Cl)c2)c1=O`, for which, under setting [1], the AC50 is 5.01 µM [rising, single point].
Regarding `Cn1c(CN2CCCCC2)nc2cc(NC(=O)c3ccccc3Cl)ccc21`, under setting [1], the AC50 is 25.1 µM [falling, partial curve].
For `O=C(NC1CCCC1)c1cc(Nc2cccc(C(F)(F)F)c2)nc2ccccc12`, the AC50 under setting [1] is 1.26 µM [falling, full curve].
As to `CC(C)(C)C1CCc2onc(C(=O)Nc3cccnc3)c2C1` (stereo not drawn), the concentration at half-maximal activity (AC50) under setting [1] is 31.6 µM [falling, partial curve].
As to `CCC(=O)N1CCc2cc(Br)cc(S(=O)(=O)CCC(=O)N3CCN(c4ccccc4F)CC3)c21`, the AC50 under setting [1] is 31.6 µM [falling, single point].
`CCOC(=O)c1cccc(NS(=O)(=O)c2ccc(-c3cnc(C4CC4)o3)cc2)c1`: the AC50 under setting [1] is 39.8 µM [falling, single point].
On to `O=C(C1CCN(S(=O)(=O)Cc2ccccc2)CC1)N1CCN(c2ccccc2)CC1`, for which the AC50 under setting [1] was 31.6 µM [falling, single point].
For the compound `NC(=O)c1nc(Nc2ccccc2)sc1NC(=O)c1ccccc1Br`, the AC50 under setting [1] was 0.316 µM [falling, full curve, poor fit].
Same read-out and setting: in the case of `COc1ccc(OC)c2[nH]c(=O)c(CCNC(=O)c3cc4ccccc4o3)cc12` it was 25.1 µM [falling, single point]; in that of `COc1cc(OC)cc(-c2cc3nc(C)c(CCC(=O)NCc4ccc(Cl)cc4)c(C)n3n2)c1`, 3.16 µM [falling, full curve]; in that of `Cc1cccc(N2CCN(C(=O)Cn3ncc4c5ccccc5n(C)c4c3=O)CC2)c1C`, 12.6 µM [falling, partial curve].

The values are drawn from PubChem BioAssay AID445 (National Center for Advancing Translational Sciences (NCATS), 2006).
